Reference: publication PMC11015564

Assays:
Experiment in all cases: EMSA
Conditions in all cases: LightShift Chemiluminescent EMSA Kit (Thermo) per manufacturer; pH and temperature not stated; recombinant protein; protein details: His (pET-28a); probe letters rebuilt from the primers and the genome
[1] = target: BbOsrR2 DNA-binding domain (Beauveria bassiana) (UniProt J5JXE0)
[2] = target: BbOsrR1 DNA-binding domain (Beauveria bassiana) (UniProt J4KQN9)
[3] = target: BbOsrR3 DNA-binding domain (Beauveria bassiana) (UniProt J5K4G2)

Row | Sequence | binding result [1] | binding result [2] | other results
1 | CCCCCCTTCCACATCCACTCATCATCCACTCCTCCTCATCCACTCCTCCTCCCACTCCCACTCTCACTCCCACTCCATCTTTCCGCCTCTTCCCTTCCTCTCCTCCCATTATTTTGTCCATCTAGCAAAGGCGTCCAACACTGTCTGTCGACACCCGGATCGGACATTTCCTCCTCTCTTCCTCAATCATCCCTCTCCGGAATATGCGTTGGCAGTAGCGGCCCTTTTTTTCACTTCGTCTTTTCTTCTTCTTCTTCCTCCTCCTCTTCTTCTACT (double strand) [Msg5 promoter WT] | binds |  | 
2 | TGCTGGCTAGGGTCCGGGGTGTGTGTTTTTTTTGGCCGGATTAAAATGAGGAAGAAGCCTTGCTATGGAGCCAAGTGTCGACATGGGCGAAGAAGCAAAAAAAAAAGGGCCGTTGTCTAGAAAACACTAGAGCAACACCACCACGAGCAGAATATGGTTATTAGAAAAAAATTAAAGTGGACGCCGGCGAAGAATTTAAAGAATTAGAAAAAAAAAGCAGTGATTACAACGGCAAGAATGAAAAAAAAAAACGATTGGAGGACCCTTTGACCTACGGGCCAGTGCAAAGGGGATTGCCGGTGAGATGGCTGGCGCCCGAGTTTCGTGGTGGTAATGAATTGTCGAGATGACGATGTAGCAAAGAAGAGGAAGAGAGAAAAAAAGGCCCAGCGACCTTGACTTGGTTTGAGGCCTGCATATTCTTTTTTTTTTTGGGCTGCTAGCCCGGCTAGGCTATTTAGGTAGGTAGGTAGAGACCTTAACTACCTAGCGCCGAGTCT (double strand) [BbOsrR2 promoter WT] |  | binds | 
3 | GGAGCGTGGGAGCGTGGGAGGGAGGGAGCAAGGCCGTGTGTCGCAGAGAAACAAACCAGGTTTGGATTGGGAAAAAGGTTGGGGGTTAATTTTGATGCGGATGGGCAGGAGCAGGTGGGCGGGCAGGTCTTTCTGTATTCAGTCTGGTGTGGTCAGTCGTCAGTGGGCAATGGGCATTGGCATCAAGCATGTAGGCAGGCAGGCAGGCAGGCAGACAGGCAGGCAAGCAAGTAACGAGTCGTTTGGTGAGGGGGG (double strand) [Mcm1 promoter WT] | binds |  | 
4 | AAGATCATCCGCTAATCTCGCATCTTTCTTTTCTTCTGCGTCTTTTTCTTCAGACGCAATCAGCTTGTCCCGCTTCCTCCGCCCTGGTTCGTCGCCCCCCGCCTCGCACCAGAGACTCGCAGGGCAACCACGCACGTTGGGCCCCTCTCCCCTCTCTCGTTCACCGAGAAGGAAAAAAAAAAAAAATCACACACCCTCCCAGCGCTCGCATGACGATGAAATGGCAGCAGTAATTGGCGACTTCGTAACCGATCTCTCACGATTCCATAATATGATTACAAGCTCGTCGTC (double strand) [BbClp1 promoter WT] |  | binds | 
5 | ATCGCCAAATACGGTTTTGCGAGAGTCAACTTTGCCAGAGCTTCCTACAGCTGCGAGACGAATATCCAACAGCGGCTCCAAGAAAATTTACCCCGTAGGTCCACTTGTTGGTCCAGTGCCTGCTTGCGCCGGCGGTTACCTCCTGCATCCAGCATTGGCCCTTTTAAGTTTGTGCCTCAACTGCGACACGCGCCAGGAGCAGTCAGCTTCGCCCCTCGCGAAGCGTTGTACCAAAAGTCTCCCAAAGCTAGCGGCATTGACAGATCGGCGAGGACCAGGCCCG (double strand) [Fus3 promoter WT] |  |  | binding result [3]: binds

For at least one entry, the source does not settle the construct or the ends of the probe.
